Consider one substance from article PMC7663799, “Endocytosis and Trafficking of Heparan Sulfate Proteoglycans in Triple-Negative Breast Cancer Cells Unraveled with a Polycationic Peptide” (International Journal of Molecular Sciences, 2020).

The subject of this series is Rab5. Put plainly: Colocalization of NT4 with Rab5 (Rab5A antibody). The class given is cell-based, human. Particulars: MDA-MB-231.

Consider (pyELYENKPRRPYIL)4K2K-beta-Ala [NT4], for which the “Pearson coefficient of NT4 with Rab5” value (n = 11, SD ± 0.06) is 0.51. The “colocalization rate of NT4 with Rab5” value (n = 11, SD ± 13) worked out at 39%.
